The values that follow come from PubChem BioAssay AID2685 (National Center for Advancing Translational Sciences (NCATS), 2010).

The structures appear in SMILES notation. The list shows a part of the results. These are further read-outs of the screen, such as a control signal, another cell line or another target. No call is given for them. Most of these compounds were active or inconclusive in the main read-out, so they are no random draw. Words in brackets tell the shape of the fitted curve; partial curves, single points and poor fits give uncertain potencies.

This experiment is described as follows: qHTS Assay for Lipid Storage Modulators in Drosophila S3 Cells.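 On cell number change: cells counted by Cell Tracker Red CMTPX staining in the red channel.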 The conditions noted are these: BODIPY lipid droplet fluorescence, 18-24 h; for cell number change: measured here: cell count max response, cells fed with added oleic acid. Summed up:
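Drosophila S3 cells got compounds at several concentrations plus oleic acid (400 uM solution). Laser-scanning cytometry with 488 nm excitation read lipid droplets at 500-530 nm and cells at 575-640 nm. Percent activity was relative to 20 uM Triacsin C.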
(In general: qHTS replaces the single test concentration by a dilution series.)

The mark [1] stands for this setting: measured here: lipid fluorescence (Fed channel) AC50, cells fed with added oleic acid.
Setting [2] is: measured here: cell number channel AC50, cells fed with added oleic acid.

As a reminder, the AC50 is the concentration at which the activity in the assay is half-maximal.

Turning to `O=C(CN(C(=O)c1csnn1)c1ccccc1F)NCc1ccc2c(c1)OCO2`, the cell number change is -2.08%.

For `COc1ccc(N(CC(=O)NCc2ccc3c(c2)OCO3)S(=O)(=O)c2ccccc2[N+](=O)[O-])c(OC)c1`, the cell number change was -11.4%. Moreover, under setting [1], the AC50 was 0.13 µM [falling, full curve, poor fit].

As to `CCOC(=O)C1CCCN(C(=O)C2CCN(S(=O)(=O)c3cccs3)CC2)C1` (configuration not stated), the AC50 under setting [2] is 3.66 µM [rising, partial curve] and the AC50 under setting [1] is 0.082 µM [falling, full curve, poor fit].

`Cc1ccccc1OCc1occc1C(=O)Nc1cccc(-n2cnnn2)c1`: the cell number change is -19.4%. Further, the AC50 under setting [1] is 29.1 µM [falling, single point].

With `C=CCN1C(=O)c2ccc(C(=O)OCC(=O)N(C)C3CCCCC3)cc2C1=O`, the cell number change came to 60.3%.

As for `CC1(C)Cc2c(cnn2-c2ccc(F)cc2)C(NC(=O)CCN2CCCCC2=O)C1` (configuration not stated), the cell number change was -7.65%.

Take `Cc1ccc(S(=O)(=O)N(C)CC(=O)O/N=C(\N)c2ccc([N+](=O)[O-])cc2)cc1`: the cell number change is -0.694%. In addition, the AC50 under setting [1] was 0.461 µM [rising, partial curve, poor fit].

For the molecule `Nc1c(Cl)ncnc1N/N=C/c1cccc(O)c1`, the cell number change is -23.2%. Besides, the AC50 under setting [1] is 6.51 µM [falling, single point].

On to `CC(C)c1ccc(/C=C/C(=O)N2CCCCCC2)cc1`, for which the cell number change is 13.7%. Also, under setting [1], the AC50 is 29.1 µM [rising, single point].

Regarding `CN(Cc1c(F)cccc1Cl)C(=O)c1ccc(COc2ccccc2)cc1`, the cell number change is 15.1%. Moreover, the AC50 under setting [1] was 16.4 µM [falling, single point].

For `COc1cc2nc(N(CCCN(C)C)C(=O)c3ccc(S(=O)(=O)N(C)C4CCCCC4)cc3)sc2cc1OC`, the cell number change was 35.6%. The AC50 under setting [2] was 13 µM [rising, single point].

As for `Cc1nc2c(C)cccn2c(=O)c1NC(=O)c1cccs1`, the cell number change is -5.62%.

As to `CN(C)/C=C/C(=O)c1ccccc1OCc1cnc(Cl)s1`, the cell number change was -45.8%. Further, the AC50 under setting [2] was 1.16 µM [falling, full curve]. Also, the AC50 under setting [1] was 0.92 µM [falling, full curve, poor fit].

As to `CC(=O)c1cccc(NC(=O)C(C)OC(=O)c2cccc(S(=O)(=O)N3CCN(C)CC3)c2)c1` (configuration not stated), the cell number change amounted to 12.7%.

Turning to `CNS(=O)(=O)c1ccc(NCC2COc3ccccc3O2)c([N+](=O)[O-])c1` (configuration not stated), the cell number change is 25.9%.

With `Cc1ccnc(NS(=O)(=O)c2cccs2)c1`, the cell number change is -4.94%. In addition, the AC50 under setting [1] is 29.1 µM [falling, single point].

As for `COc1cc2c(cc1OC)CN(C(=O)c1ccc(OC)c(S(=O)(=O)N3CCOCC3)c1)CC2`, the cell number change is -13.9%.

As for `CCOC(=O)C(NC(=O)C1C(C)N1S(=O)(=O)c1ccc(C)cc1)C(=O)OCC` (configuration not stated), the cell number change was -7.76%. In addition, the AC50 under setting [2] is 0.651 µM [rising, partial curve, poor fit]. Under setting [1], the AC50 is 0.0058 µM [rising, full curve, poor fit].

Take `CCOC(=O)C1CCN(C(=O)Cc2c(F)cccc2Cl)CC1`: the cell number change was -1.08%. In addition, under setting [1], the AC50 was 0.231 µM [falling, full curve, poor fit].

Consider `O=C(CN1CCCC1c1cccs1)N1CCN(S(=O)(=O)c2cccc(F)c2)CC1` (configuration not stated), for which the cell number change was -5.44%. Under setting [1], the AC50 was 0.184 µM [rising, full curve, poor fit].

Take `Cc1cc(C)c(C)c(S(=O)(=O)Nc2ccccc2C(=O)NCCCn2ccnc2)c1C`: the cell number change came to 10.6%. The AC50 under setting [1] is 0.164 µM [rising, full curve].

Turning to `CC1(OC(=O)CCc2ccccc2)C(=O)C=C2C=C3CCCN3C=C2C1=O` (configuration not stated), the cell number change is 7.02%. Besides, under setting [1], the AC50 was 0.146 µM [rising, full curve, poor fit].

Take `CCc1cccc(OCC(=O)Nc2ccc(S(=O)(=O)Nc3onc(C)c3C)cc2)c1`: the cell number change amounted to 11.5%. In addition, the AC50 under setting [1] was 0.00517 µM [rising, full curve, poor fit].

As for `CC(=O)NC1CCN(CC(=O)Nc2nccs2)CC1`, the cell number change stood at 4.66%. Further, the AC50 under setting [1] is 7.31 µM [falling, single point].

In the case of `COc1ccc(C2/C(=C(/O)c3ccccc3)C(=O)C(=O)N2C)cc1` (configuration not stated), the cell number change is -34.3%. Besides, the half-maximal activity concentration (AC50) under setting [2] is 29.1 µM [falling, single point].

For the molecule `O=C(NN1C(=O)c2cc(Br)ccc2NC1c1cc(Br)cc(Br)c1O)c1ccncc1` (configuration not stated), the cell number change came to 38.9%. Besides, the AC50 under setting [2] was 7.31 µM [rising, partial curve]. Further, the AC50 under setting [1] was 8.2 µM [rising, partial curve].

Turning to `O=C(COC(=O)COc1ccc(Cl)cc1Cl)NC1CCCCCC1`, the cell number change amounted to 5.94%. The AC50 under setting [1] is 0.00461 µM [rising, full curve, poor fit].

For `Cc1nn(-c2ccccc2)c(Cl)c1C(=O)OC(C)C(=O)NC(=O)NC1CCCCC1` (configuration not stated), the cell number change is -16.1%. Moreover, the AC50 under setting [1] is 29.1 µM [falling, single point].

As to `CCOc1ccc(OCC(=O)NCc2n[nH]c(=O)c3ccccc23)cc1`, the cell number change was 225%. For the same molecule, the AC50 under setting [2] is 29.1 µM [rising, partial curve].

In the case of `CC(C)C(=O)Nc1ccccc1Cc1ccccc1`, the cell number change turned out to be 32.1%. Besides, under setting [2], the AC50 was 5.8 µM [rising, single point].

Take `CCC(C)NC(=O)c1cc2cc3ccc(OC)cc3nc2s1` (configuration not stated): the cell number change was -14%. In addition, the half-maximal activity concentration (AC50) under setting [1] is 29.1 µM [falling, partial curve, poor fit].

As to `COc1ccc(N2CC(C(=O)Nc3ccccc3N3CCCC3)CC2=O)c(OC)c1` (configuration not stated), the cell number change is 6%.

For the molecule `O=C(O)CCN(Cc1ccccc1)S(=O)(=O)c1ccccc1Cl`, the cell number change is -13.8%. Besides, the AC50 under setting [2] was 0.206 µM [falling, full curve, poor fit]. Further, the AC50 under setting [1] is 0.291 µM [falling, full curve].

Regarding `C[C@H](NC(=O)C1CC(=O)N(c2ccc3c(c2)OCO3)C1)C(=O)NC1CCCCC1` (some centres not stated), the cell number change is 6.35%. The AC50 under setting [2] was 1.16 µM [rising, full curve, poor fit].

Regarding `CCOc1ccc(NC(=O)c2ccc3c(=O)n4c(nc3c2)CCCCC4)cc1`, the AC50 under setting [1] was 0.116 µM [rising, single point].

With `Cc1ccc(NC(=O)Cc2cn3ccsc3n2)nc1`, the cell number change is -6.08%.

For the molecule `CC(C)NC(=O)COc1coc(CN2CCN(c3cccc(Cl)c3)CC2)cc1=O`, the cell number change amounted to 16.7%. Further, under setting [1], the AC50 was 18.4 µM [rising, partial curve].

On to `CCN(CC)c1ccc(-c2n[nH]c(=S)n2-c2ccccc2C)cc1`, for which the cell number change is 155%. Under setting [2], the AC50 is 11.6 µM [rising, partial curve, poor fit].

As to `CCC(C(=O)NCC1CCCO1)N(C(=O)CNS(=O)(=O)c1ccccc1)c1ccc(F)cc1` (configuration not stated), the cell number change was found to be 11.7%. The AC50 under setting [1] was 6.51 µM [rising, single point].
